About 5,900 (2.8%) of roughly 210,000 compounds were called active. Inconclusive results (about 5%) are left out. Calls come from the whole dose curve; as a rule, active = well fitted activation curve with a large enough effect; inconclusive = small, poorly fitted or top-dose-only effect; inactive = no such curve, though single readings can be large or run the other way. Only a part is listed here, and it is no random draw. The source gives no active or inactive call for entries shown without one.
Assay: qHTS Assay for Enhancers of SMN2 Splice Variant Expression; note: nearly all actives have a fitted effect of over 55% in size; for activity change, positive = activation: % of control where 0% means no effect
Settings: HEK293 SMN2-luciferase splicing reporter, luminescence, 30-36 h; activity change, positive = activation: at 46.1 µM (top of the series)
Procedure, shortened: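 HEK293 cells carry an SMN2 […]–luciferase reporter in which exon 7 inclusion puts luciferase in frame. Cells were plated 10-12 h before compound addition, then incubated 30-36 h at 37C. ONE-Glo luminescence was read; sodium butyrate at 4.5 mM final served as control.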
With `CCCCC[CH2][Hg][S]C1=C2N=CNC2NC(N)=N1` (configuration not stated) the activity change, positive = activation was inactive: -47.6% [at 9.22 µM]. For `COc1ccccc1CCNC1CCC(C)CC1` (configuration not stated), the activity change, positive = activation was 14.1%. Compound `CC1CC2(O)c3no[n+]([O-])c3CCC2N1O` (configuration not stated) has an activity change, positive = activation of 31%. `CC(=O)Nc1ccccc1OP1(=O)COc2ccccc2OC1` showed an activity change, positive = activation of 43.2%. For `CNC(=O)ON(C(=O)NC)C1N(C)C(=S)SC1(C)C` (configuration not stated), the activity change, positive = activation was 38.2%. Work on `Cn1c(O)c(/C=C/C=Nc2ccccc2)c(=O)n(C)c1=O` yielded an activity change, positive = activation of 27.1%. Work on `CCOC(=O)c1c(C)n(CC(O)CN2CCOCC2)c2cc(Br)c(OC)cc12` (configuration not stated) yielded an activity change, positive = activation of 38.5%. In the case of `CC(Cc1ccccc1)NC(=O)NC(C)Cc1ccccc1` (configuration not stated), the activity change, positive = activation is reported as 65.4%. For `CC(=O)OC1C(=O)[C@]2(C)C(O)CC3OC[C@]3(OC(C)=O)C2[C@@H](OC(=O)c2ccccc2)[C@]2(O)CC(O)C(C)=C1C2(C)C` (some centres not stated), the activity change, positive = activation was -53%. For `O=C(Cn1ncc2c3ccccc3n(Cc3ccc(F)cc3)c2c1=O)N1CCC2(CC1)OCCO2`, the “activity change, positive = activation” value was inactive: -34.2%. In the case of `O=Cc1cn(CCCOc2ccccc2)c2ccccc12`, the “activity change, positive = activation” value is reported as inactive: -60.6%. In the case of `CC[C@]1([C@H]2O[C@@H]([C@@H]3O[C@](O)(CO)[C@@H](C)C[C@H]3C)C[C@H]2C)CC[C@@H]([C@]2(C)CC[C@@]3(C[C@@H](O)[C@@H](C)[C@@H]([C@H](C)[C@H](OC)[C@H](C)C(=O)O)O3)O2)O1`, the “activity change, positive = activation” value is reported as inactive: -29.3% [at 20.6 µM]. For `CCNC(=O)O/N=C(\C)c1sc(-c2ccc(Cl)cc2)nc1C`, the “activity change, positive = activation” value was inactive: 28.6%. For `CC(=O)N1CCN(c2ccc(OCC3CO[C@@](Cn4ccnc4)(c4ccc(Cl)cc4Cl)O3)cc2)CC1` (some centres not stated), the “activity change, positive = activation” value was inactive: -68.6%. With `CN[C@@H]1C[C@@]2(C)O[C@@H]([C@@H]1OC)n1c3ccccc3c3c4c(c5c6ccccc6n2c5c31)C(=O)NC4` the activity change, positive = activation was -99.4%. Compound `Cc1cccc(C2=NCC(=O)N(CC(=O)NCc3ccco3)c3sc4c(c32)CCCC4)c1` has an activity change, positive = activation of -32.8%. `CCC(=O)OC1(c2cccc(C)c2)CC(C)N(C)CC1C` (configuration not stated) gave an activity change, positive = activation of 31%. In the case of `CC(Oc1ccc(Br)cc1)C(=O)N(Cc1nc(-c2ccccc2)no1)C(C)C` (configuration not stated), the “activity change, positive = activation” value is reported as inactive: -42.7%. `CCCCc1nc2ccccc2c(=O)n1-c1ccc(Cl)cc1[N+](=O)[O-]` gave an activity change, positive = activation of 2.62%. `CC(=O)Nc1ccccc1C(=O)OCC(=O)c1ccc2ccccc2c1` gave an activity change, positive = activation of -35.5%. In the case of `NC1=NC([S][Hg][c]2ccc(N)cc2)c2ncn([C@@H]3O[C@H](CO)[C@@H](O)[C@@H]3O)c2N1` (some centres not stated), the activity change, positive = activation is reported as inactive: -104% [at 9.22 µM]. Work on `Cc1cc(C=C2C(=O)NC(=O)NC2=O)c(C)n1-c1ccncc1` yielded an activity change, positive = activation of -6.71%. Work on `CCCCCCn1c(O)c(C=Nc2c(C)n(C)n(-c3ccccc3)c2=O)c(=O)[nH]c1=O` yielded an activity change, positive = activation of 15%. `CCCCCCN=C(CC)c1c(O)n(CCCC)c(=O)[nH]c1=O` showed an activity change, positive = activation of -43.6%. In the case of `COc1cc2c(cc1OC)-c1c(OC)c(OC)c(OC)c3ccnc(c13)C2=O`, the “activity change, positive = activation” value is reported as inactive: -44.4%. With `CCN1CCN(c2nc3ccccc3s2)CC1` the Potency was active: 11.2 µM. With `CCN(CC)S(=O)(=O)c1ccc(NN=C(C#N)C#N)cc1` the activity change, positive = activation was -44.3%. Compound `N#CC(C#N)=Cc1ccc(-c2ccccc2F)o1` has an activity change, positive = activation of -37.9%. With `CC1CN(O)C2CCc3nonc3C12O` (configuration not stated) the activity change, positive = activation was 31.4%. With `CCCNS(=O)(=O)c1ccc(OCC(=O)N2CCN(Cc3ccccc3)CC2)cc1` the activity change, positive = activation was -68.6%. With `Cc1cccn2c(=O)c3c(nc12)N1CCC(Cc2ccccc2)CC1C1(C3)C(=O)N(C)C(=O)N(C)C1=O` (configuration not stated) the activity change, positive = activation was -42.2%. With `Cc1cccc(-n2c(/C=C/c3ccc([N+](=O)[O-])o3)nc3ccccc3c2=O)c1` the activity change, positive = activation was -84%. For `COc1ccc2c(c1)[nH]c1c(C)nccc12`, the Potency was “inactive”. In the case of `COC(=O)C1=C(C)NC(C)=C(C(=O)OC)C1c1ccccc1[N+](=O)[O-]`, the Potency is reported as “inactive”. Compound `COc1ccc(/C=C2/C(=O)N(Cc3ccco3)C(=O)N(C(C)C)C2=O)cc1` has an activity change, positive = activation of 2.11%. In the case of `O=C1NC(=O)N(Cc2ccccc2)C(=O)/C1=C\N1CCCc2ccccc21`, the activity change, positive = activation is reported as 8.28%. With `CNC(=O)COC(=O)c1ccc(-c2nc3ccccc3s2)s1` the Potency was active: 15.8 µM. For `O=C1C(=O)c2ccccc2-c2ccccc21`, the “activity change, positive = activation” value was inactive: -106%. With `CN1C2CCC1CC(OC(=O)CCN1CCCC1)C2` (configuration not stated) the activity change, positive = activation was 34.6%. Work on `Cc1ccc[n+](CC(O)Cn2c3ccccc3c3ccccc32)c1` (configuration not stated) yielded an activity change, positive = activation of 15.7%. For `Cc1cc(C)cc(-n2c(C)cc(/C=C3\C(=O)NC(=O)N(C)C3=O)c2C)c1`, the “activity change, positive = activation” value was inactive: 10.7%. With `CC(C)C1C(=O)N2CCC[C@H]2[C@]2(O)O[C@](NC(=O)[C@@H]3C=C4c5cccc6[nH]cc(c56)C[C@H]4N(C)C3)(C(C)C)C(=O)N12` (some centres not stated) the “activity change, positive = activation” value was inactive: -2.57%. In the case of `COc1ccc2nc(NC3=NCCN3)sc2c1`, the Potency is reported as active: 10 µM. With `O=C1NC(=O)C2(Cc3ccccc3N3CCCC32)C(=O)N1c1ccc(Cl)cc1` (configuration not stated) the activity change, positive = activation was 39.2%. In the case of `O=C(Oc1ccc2ccc(OC(=O)N3CCOCC3)cc2c1)N1CCOCC1`, the “activity change, positive = activation” value is reported as inactive: -33.2%. With `CC(=O)OC1CCC23C(=O)OC45CCC(C6=CC(=O)OC6)C4(C)CCC2C5CCC3(O)C1` (configuration not stated) the activity change, positive = activation was -88.9%. In the case of `Cc1cc(N2CCCCC2)ccc1C=C1C(=O)N(C)C(=S)N(C)C1=O`, the “activity change, positive = activation” value is reported as inactive: -53.6%. For `S=C=Nc1ccccn1`, the activity change, positive = activation was 41.7%. Work on `CCCCc1ccc2[nH]cc(CCN)c2c1` yielded an activity change, positive = activation of -57.8%. For `CC(=O)Oc1ccccc1C(=O)Nc1ncc([N+](=O)[O-])s1`, the Potency was active: 12.6 µM. `CN1CCN(/N=C/c2c(O)n(C)c(=O)n(C)c2=O)CC1` showed an activity change, positive = activation of -42.9%. In the case of `CN1CCC(O)(c2ccccc2)C2CCCC21` (configuration not stated), the activity change, positive = activation is reported as 47.5%. In the case of `CN(CCc1ccc(Cl)c(Cl)c1)[C@@H]1CCCC[C@@H]1N1CCCC1`, the “activity change, positive = activation” value is reported as inactive: -52.3%. `CCCCn1c(=O)c(C=Nc2cccnc2Cl)c(O)n(CCCCl)c1=O` gave an activity change, positive = activation of 17.2%. With `CNC(=O)c1cccn(Cc2cc(C(F)(F)F)cc(C(F)(F)F)c2)c1=O` the “activity change, positive = activation” value was inactive: -68.1%. In the case of `CC(=O)C1CCC2C3CCC4=CC(=O)CC[C@@]4(C)C3CC[C@]12C` (some centres not stated), the “activity change, positive = activation” value is reported as inactive: -69%. With `CC(C)(C)OC(=O)N1CC(O)CC1C(=O)OCC(=O)c1ccc(-c2ccccc2)cc1` (configuration not stated) the “activity change, positive = activation” value was inactive: -43%. Work on `CSc1ccc(CNC2CN3CCC2CC3)cc1` (configuration not stated) yielded an activity change, positive = activation of 2.05%. With `O=[As](O)(O)c1ccc(Cc2ccc([As](=O)(O)O)cc2)cc1` the activity change, positive = activation was inactive: -35.3% [at 9.22 µM]. For `COc1ccc(Cc2nccc3cc(OC)c(OC)cc23)cc1OC`, the Potency was “inactive”. For `CCN1/C(=C\C=C\C2=[N+](CC)c3ccccc3C2(C)C)C(C)(C)c2ccccc21`, the “activity change, positive = activation” value was inactive: -69.7%. `Cc1ccccc1NC(=S)NC(NC(=O)CF)C(Cl)(Cl)Cl` (configuration not stated) showed an activity change, positive = activation of 35.9%. With `CC(C)(c1ccc(OCC2CO2)cc1)c1ccc(OCC2CO2)cc1` (configuration not stated) the activity change, positive = activation was -94.7%. In the case of `CCOC(=O)c1cc2c(cn1)[nH]c1ccccc12`, the “activity change, positive = activation” value is reported as inactive: 24.9%. In the case of `COC(=O)C[C@]1(C(=O)OC)CN(C#N)N(c2ccc(Cl)cc2)C12c1ccccc1-c1ccccc12`, the “activity change, positive = activation” value is reported as inactive: -116%. `CC(=O)c1ccccc1NC(=O)C1C2CCC(O2)C1C(=O)O` (configuration not stated) gave an activity change, positive = activation of 42.5%. With `CCC(=NCCO)c1c(O)n(-c2ccccc2)c(=O)[nH]c1=O` the activity change, positive = activation was 31%.
Potency is the fitted concentration of half-maximal effect.
